This is an account of results in the supplement of paper PMC12764529.

Data set [1] is described as follows: folding stability dG unfold (combined trypsin and chymotrypsin); higher = more stable. The procedure: (§1)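 Folding stability of de novo designed mini-proteins (<80 aa, no Cys; designed by TrROS, TrMRF, ProteinMPNN and the joint model) was measured by cDNA display proteolysis with trypsin and chymotrypsin. Each protease was used at 11 concentrations in a threefold dilution series plus a no-protease condition. K50 was inferred by Bayesian fitting of sequencing counts, and dG unfold was derived against a sequence-predicted unfolded-state K50 (Tsuboyama et al. method). Sequences shown include variable-length N-terminal GS-type padding (SAGGSAGG...) inside a display construct carrying a PA tag. Rows were kept only if the AF2 dimer inter-PAE was >15, to exclude likely homo-oligomers.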

The nature of data set [2]: folding stability dG unfold from chymotrypsin proteolysis; higher = more stable. As for the experimental part:
as §1

± gives the half width of the 95% confidence interval. The two proteases of the assay disagree for many of these sequences.

Turning to “SAGGSAGGSAGGMITVTTSSTPGTRTVTVTLPTGAPITLDFPPDETLADAIAAARAAIAASAGGSAGGSAGG [r7_265_JUSTAS]”, the “folding stability dG unfold” value in data set [1] was 0.651 ± 0.064 kcal/mol; in data set [2] it was 1.17 ± 0.018 kcal/mol.

With “SAGGISVEIYPPNGKKVELEGDTIPELMDKFPPGGNYVIKIEQPHVNPGNGKKQPMEMEFRVPPDDFSAGGS [r16_806_TrROS]”, the “folding stability dG unfold” value in data set [1] is -0.697 ± 0.33 kcal/mol; in data set [2], -0.202 ± 0.23 kcal/mol.

As for “SMVYVFEVPEGDPEKAEELIRAKLEEEFGYKVESVATPGGGGARVVLVVDPVEDKAYAEVIPFAPDGSPASA [r9_173_TrMRF]”, the figures for the “folding stability dG unfold” value in data set [1] and in data set [2] were 0.618 ± 0.16 kcal/mol and 1.15 ± 0.2 kcal/mol, respectively.

As to “SMTEELTLTVEVPFTPPDGTTVTLTITVTGTAPVPEEILEEGSPYIPEEALAALKAAAEAAIAAATGRAASA [r9_629_JUSTAS]”, the “folding stability dG unfold” value stood at 0.888 ± 0.21 kcal/mol in data set [1] and 1.64 ± 0.14 kcal/mol in data set [2].

For the sequence “SAMLTILSVETHTLPNGEEIVTVTLKTPDLETLDALLAELGLTGTRDPDDPQVVTITTSREKVQEIKEKSAG [r14_777_JUSTAS]”, the “folding stability dG unfold” value was 4.57 ± 0.3 kcal/mol in data set [1] and 4.71 ± 0.2 kcal/mol in data set [2].

For the sequence “SAGGSAGGSAGGPSMRRTVNLKLFVTPEEEEKAEAIAKELKEKGVDVRDVEIILLPPELKSAGGSAGGSAGG [r11_533_JUSTAS]”, the “folding stability dG unfold” value in data set [1] came to 0.575 ± 0.095 kcal/mol; in data set [2], 1.11 ± 0.059 kcal/mol.

For “SGMVTLEDIAAAPPGTPVVVTTKKQGSKNLTFIDAVVDGARSSASYPSIEEARKELEAVGYPVEFVDPAESA [r9_1021_JUSTAS]”, the figures for the “folding stability dG unfold” value in data set [1] and in data set [2] were -0.429 ± 0.19 kcal/mol and 0.143 ± 0.066 kcal/mol, respectively.

In the case of “SAGGSAGGSAGGTLGTVRRETEDEVTVEENPVVEPRIARTADGKLVREETERVTVTVSPPSAGGSAGGSAGG [r7_764_JUSTAS]”, the “folding stability dG unfold” value in data set [1] was 0.805 ± 0.038 kcal/mol; in data set [2] it was 1.346 ± 0.011 kcal/mol.

For the sequence “SAGGSAGGSAGPPPYTLVATRTFPTAPVRVYRTADPSRLLVYFPPLGRRVEVPPDVPNLVSAGGSAGGSAGG [r11_1007_TrMRF]”, the “folding stability dG unfold” value in data set [1] stood at 0.702 ± 0.19 kcal/mol; in data set [2], 2.03 ± 0.088 kcal/mol.

Consider “SAGGSAGGSAGGSMTTITFPATVEESPTDTVTVTPPDGSTITVPKSRVSFDPSGTVTITGSAGGSAGGSAGG [r7_684_JUSTAS]”, for which the figures for the “folding stability dG unfold” value in data set [1] and in data set [2] were 1.01 ± 0.072 kcal/mol and 1.63 ± 0.039 kcal/mol, respectively.

Turning to “SAGGMLTVEQIREAIKKLPPGARIKIKIEVNGKTYEIEIEVGEEIEFPPGLSEEDITRIEIVEIEEESAGGS [r16_97_TrROS_Hall]”, the “folding stability dG unfold” value amounted to 4.55 ± 0.72 kcal/mol in data set [1] and 2.99 ± 0.12 kcal/mol in data set [2].

With “SAGGGMLTELSTVSSSFDPATNRSVSESLVLDPEKGTIIRLKTVTDLAGPPTTTTSESVEPLEPGLVSAGGS [r16_207_JUSTAS]”, the “folding stability dG unfold” value in data set [1] came to 0.625 ± 0.044 kcal/mol; in data set [2], 1.12 ± 0.015 kcal/mol.

Consider “SAGSAVVRDFDFEVPPGYGVLDVTVTEGPGPPVWEGTVTFQAGGAPETLTVTIPVDPATGARSVAMTAGSAG [r5_136_JUSTAS]”, for which the “folding stability dG unfold” value in data set [1] is -0.235 ± 0.25 kcal/mol; in data set [2], 0.267 ± 0.13 kcal/mol.

Consider “SAGGSAGGSAPPAQPIPINIKITNPGNGKKREIPFDIPPGMNIEEIADELAKEDGIHRVEIESAGGSAGGSA [r18_58_TrROS]”, for which the “folding stability dG unfold” value in data set [1] stood at 0.465 ± 0.17 kcal/mol; in data set [2], 1.11 ± 0.048 kcal/mol.

Turning to “SAGGSAGGMFYVVRLEGPDGPLRTLVRPAESLEEARAFAEALAPEGARVTVEPLEEEEAERLLGSAGGSAGG [r6_267_TrMRF]”, the “folding stability dG unfold” value in data set [1] was 2.13 ± 0.065 kcal/mol; in data set [2], 2.54 ± 0.053 kcal/mol.

As to “SAGGAEELAKRLAEELREAGYEVEVVKVERLENGEVVITMKVRVVKDGKEVEEREIKLVLKLPEELLSAGGS [r8_102_TrROS_Hall]”, the “folding stability dG unfold” value was found to be 3.98 ± 0.086 kcal/mol in data set [1] and 4.03 ± 0.069 kcal/mol in data set [2].

Consider “MKYKVKIKIETKAEITYEKTPDGTIRPRLDKGSAEFEIEAEPEELEELLKELNIPEDVIDKIEIEVFPKESS [r1_351_TrMRF]”, for which the “folding stability dG unfold” value is 0.616 ± 0.34 kcal/mol in data set [1] and 1.1 ± 0.21 kcal/mol in data set [2].

Consider “SAGPTVRQETFGEKYRIEVEVSPDGTVKVKIVNENGEVTELEGKVEPGKPVVLPFPLDGHVVNVVVLPASAG [r5_237_TrMRF]”, for which the results for the “folding stability dG unfold” value in data set [1] and in data set [2] were 2.52 ± 0.13 kcal/mol and 2.91 ± 0.06 kcal/mol, respectively.

With “SAGGSAGGSAGGMTSTTSGFTTVGETPVRVTPVTTTPPSGGALTSPQVTVLHPGSSPGLVSAGGSAGGSAGG [r11_121_JUSTAS]”, the figures for the “folding stability dG unfold” value in data set [1] and in data set [2] were 0.675 ± 0.051 kcal/mol and 1.03 ± 0.011 kcal/mol, respectively.

Turning to “SAGMPPAVTITVSRSTAPDGTYTLTATITLPDGTTLATRTVPLSTPNDAAAVAAAVAAFEAAAAALLASAGG [r19_13_JUSTAS]”, the “folding stability dG unfold” value was 3.32 ± 0.042 kcal/mol in data set [1] and 3.727 ± 0.012 kcal/mol in data set [2].

With “SAGGSAMVTVERRTLSPEGDLAVVEAEAAARGLTYVALGGDGTVVVIRTDDPAEFARRAAEIRAAASAGGSA [r15_546_JUSTAS]”, the “folding stability dG unfold” value in data set [1] was 0.325 ± 0.18 kcal/mol; in data set [2], 1.05 ± 0.14 kcal/mol.
